Among the data in doi:10.1101/869123 are binding values, retold here.

Amino acid sequences for entries named in this document (tags omitted). A change or cut given only in a name is not applied to a line headed by its entry. Chains listed by the source or under a name are the forms on record and can include a tag or linker.
His-tagged CRIPT^8C-S (cysteine-lacking mutant) expressed in HeLa cells (Q9P021, form named): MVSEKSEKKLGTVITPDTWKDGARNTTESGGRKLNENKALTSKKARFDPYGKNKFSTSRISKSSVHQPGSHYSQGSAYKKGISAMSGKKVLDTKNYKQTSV

In test [1] the target is His-tagged CRIPT^8C-S (cysteine-lacking mutant) expressed in HeLa cells (human) (UniProt Q9P021). The test can be described thus: non-reducing and reducing gel electrophoresis with anti-His immunoblot. (In western blotting, separated proteins are transferred to a membrane and probed.)
Test [2] shares this target.

Where two headings read alike, the source gives them in different places. No constants are given. Whether binding was seen depends on the method and setting.

For “His-tagged CRIPT^8C-S (cysteine-lacking mutant) expressed in HeLa cells (from UniProt Q9P021 1-101)”, the binding entry in test [1] is listed as “no binding”; in test [2], “no binding (tested: 2µg in one gel well)”.
